The text below walks through data of US20250283871A1, “COMPOSITIONS AND METHODS FOR MODULATING THE INTERACTION BETWEEN SS18-SSX FUSION ONCOPROTEIN AND NUCLEOSOMES” (Dana-Farber Cancer Institute, Inc., priority 2020, published 2025).

The subject of the data set is BAF complex subunits and histone proteins. Put plainly: Mass spectrometry proteomics of purified HA-SS18 WT and HA-SS18-SSX1 complexes (Tables 5A-5E). Further details: species or system human. To be noted: for Total / Unique: HA-SS18SSX1_CHR_peptides; for Total: total peptides of the identified protein; for Unique: unique peptides of the identified protein.
Where [1] appears, read: HA-SS18SSX1 purification, NE (soluble nuclear extract) fraction, HEK-293T, peptides per identified protein.
[2] abbreviates: HA-SS18WT_NE_peptides: HA-SS18 WT complexes purified from nuclear extract (NE), HEK-293T, label = protein identified (Gene Symbol).
Where [3] appears, read: HA-SS18SSX1_NE_peptides: protein co-purified with HA-SS18-SSX1 BAF complexes from soluble nuclear extract (NE), HEK-293T cells.
Where [4] appears, read: HA-SS18WT_NE_peptides: proteins co-purified with HA-SS18 WT from nuclear extract (NE), HEK-293T.
[5] abbreviates: HA-SS18SSX1_CHR_peptides: protein identified in the HA-SS18-SSX1 purification from solubilized chromatin (CHR), HEK-293T.
Setting [6] is: HA-SS18WT_CHR_peptides: HA-SS18 WT purification from nuclease-treated solubilized chromatin (CHR), HEK-293T, label = protein identified.
The mark [7] stands for this setting: HA-SS18WT_CHR_peptides: protein identified in HA-SS18 WT BAF complex purification from nuclease-treated solubilized chromatin (CHR), HEK-293T.
The mark [8] stands for this setting: HA-SS18SSX1_NE_peptides (Table 5B), HA-SS18-SSX1 BAF complex purification from soluble nuclear extract, HEK-293T.
Setting [9] is: HA-SS18SSX1_CHR_peptides: proteins found in HA-SS18-SSX1 BAF complex purification from solubilized chromatin (CHR), HEK-293T.

Turning to POLRMT, under setting [1], the “Total (total peptides)” value is 5 and the “Unique (unique peptides)” value came to 4. Besides, under setting [2], the “Total (peptides)” value is reported as 7 and the “Unique (peptides)” value came to 6.

POTEKP showed a Total of 2 and a Unique of 1. Moreover, under setting [3], the “Total (peptides)” value worked out at 2 and the “Unique (peptides)” value was 1. In addition, under setting [4], the “Total (peptides)” value came out at 2 and the “Unique (peptides)” value is 1.

Substance PPP1CA had a Total of 1 and a Unique of 1. Further, under setting [4], the “Total (peptides)” value came out at 1 and the “Unique (peptides)” value is 1.

Consider PRKDC, for which the “Total (total peptides)” value was found to be 17 under setting [5] and 89 under setting [1]. In addition, the “Unique (unique peptides)” value under setting [5] stood at 17 and the “Unique (unique peptides)” value under setting [1] came to 78. For the same substance, the “Total (peptides)” value was found to be 13 under setting [6] and 98 under setting [2]. For the same substance, the “Unique (peptides)” value under setting [6] is given as 13 and the “Unique (peptides)” value under setting [2] is 83.

On to PRPF8, for which the “Total (total peptides)” value is reported as 42 under setting [5] and 14 under setting [1]. Further, the “Unique (unique peptides)” value runs as follows: under setting [5], 38; under setting [1], 14. Besides, the “Total (peptides)” value by setting is: under setting [6], 31; under setting [2], 21. The “Unique (peptides)” value is 28 under setting [6] and 21 under setting [2].

PTBP1 yielded a Total of 2 and a Unique of 2. Under setting [7], the “Total (total peptides)” value is 1 and the “Unique (unique peptides)” value is given as 1.

For the substance PWP1, under setting [6], the “Total (peptides)” value is listed as 3 and the “Unique (peptides)” value was found to be 2.

Turning to RAB1A, under setting [3], the “Total (peptides)” value was 1 and the “Unique (peptides)” value is recorded as 1.

For RAD50, under setting [8], the “Total (peptides)” value is 1 and the “Unique (peptides)” value is given as 1.

RAI1: under setting [5], the “Total (total peptides)” value is 9 and the “Unique (unique peptides)” value came to 9. Under setting [7], the “Total (total peptides)” value was found to be 1 and the “Unique (unique peptides)” value stood at 1.

Take RANBP2: the “Total (total peptides)” value was 5 under setting [5] and 3 under setting [1]. Besides, the “Unique (unique peptides)” value came out at 5 under setting [5] and 3 under setting [1]. In addition, the “Total (peptides)” value is 6 under setting [6] and 2 under setting [4]. Also, the “Unique (peptides)” value reads like this: under setting [6], 6; under setting [4], 2.

Turning to RBBP6, under setting [9], the “Total (peptides)” value is 1 and the “Unique (peptides)” value is 1.

In the case of RBFA, under setting [4], the “Total (peptides)” value turned out to be 1 and the “Unique (peptides)” value is recorded as 1.

For RBM25, the Total is recorded as 4 and the Unique is recorded as 4. Also, under setting [1], the “Total (total peptides)” value stood at 5 and the “Unique (unique peptides)” value is given as 5. In addition, under setting [6], the “Total (peptides)” value was 4 and the “Unique (peptides)” value came to 4. Under setting [2], the “Total (peptides)” value came out at 4 and the “Unique (peptides)” value was determined as 4.

Consider REV3L, for which, under setting [9], the “Total (peptides)” value amounted to 1 and the “Unique (peptides)” value stood at 1. In addition, under setting [4], the “Total (peptides)” value was 1 and the “Unique (peptides)” value worked out at 1.

The substance RFC2 yielded a Total of 1 and a Unique of 1. Under setting [1], the “Total (total peptides)” value was found to be 6 and the “Unique (unique peptides)” value stood at 5. Besides, under setting [2], the “Total (peptides)” value turned out to be 4 and the “Unique (peptides)” value is listed as 3.

Consider RFC3, for which, under setting [1], the “Total (total peptides)” value stood at 5 and the “Unique (unique peptides)” value stood at 3. Also, under setting [2], the “Total (peptides)” value was determined as 3 and the “Unique (peptides)” value came to 2.

The substance RFC4 registered a Total of 1 and a Unique of 1. Further, under setting [1], the “Total (total peptides)” value came to 4 and the “Unique (unique peptides)” value was found to be 4. Moreover, under setting [2], the “Total (peptides)” value was 3 and the “Unique (peptides)” value was determined as 3.

For RFC5, under setting [1], the “Total (total peptides)” value was found to be 3 and the “Unique (unique peptides)” value turned out to be 3. Under setting [4], the “Total (peptides)” value is listed as 2 and the “Unique (peptides)” value worked out at 2.

Turning to RHOT1, under setting [1], the “Total (total peptides)” value was 5 and the “Unique (unique peptides)” value is 5. Further, under setting [4], the “Total (peptides)” value is on record as 2 and the “Unique (peptides)” value is 2.

The substance RIF1 showed a Total of 2 and a Unique of 2. Also, under setting [1], the “Total (total peptides)” value is listed as 3 and the “Unique (unique peptides)” value is given as 3. Further, under setting [2], the “Total (peptides)” value is listed as 5 and the “Unique (peptides)” value amounted to 5.

RLF: under setting [5], the “Total (total peptides)” value came out at 7 and the “Unique (unique peptides)” value came out at 7. Also, under setting [7], the “Total (total peptides)” value came out at 1 and the “Unique (unique peptides)” value amounted to 1.

For the substance SAFB2, under setting [9], the “Total (peptides)” value is recorded as 1 and the “Unique (peptides)” value was 1.

As to SAG, under setting [7], the “Total (total peptides)” value is given as 1 and the “Unique (unique peptides)” value amounted to 1.

SAMHD1: under setting [3], the “Total (peptides)” value is listed as 1 and the “Unique (peptides)” value was 1.

For the substance SCFD1, under setting [8], the “Total (peptides)” value worked out at 1 and the “Unique (peptides)” value came to 1.

Consider SDHA, for which, under setting [4], the “Total (peptides)” value is 2 and the “Unique (peptides)” value was 2.

Consider SEC61A1, for which, under setting [3], the “Total (peptides)” value came out at 2 and the “Unique (peptides)” value was 2. Under setting [4], the “Total (peptides)” value stood at 2 and the “Unique (peptides)” value amounted to 2.

Consider SENP3, for which the Total is recorded as 2 and the Unique came to 2. Under setting [3], the “Total (peptides)” value is on record as 1 and the “Unique (peptides)” value is reported as 1. Further, under setting [7], the “Total (total peptides)” value came out at 2 and the “Unique (unique peptides)” value is listed as 2.

As for SETD2, under setting [8], the “Total (peptides)” value is on record as 1 and the “Unique (peptides)” value is 1.

Regarding SLC7A1, under setting [3], the “Total (peptides)” value worked out at 2 and the “Unique (peptides)” value was 2. Besides, under setting [4], the “Total (peptides)” value is 2 and the “Unique (peptides)” value is given as 2.

Consider SLC7A3 [listing 1 of 2 here], for which, under setting [3], the “Total (peptides)” value came to 1 and the “Unique (peptides)” value worked out at 1.

For the substance SLC7A3 [listing 2 of 2 here], under setting [4], the “Total (peptides)” value is listed as 1 and the “Unique (peptides)” value was found to be 1.

For the substance SLC7A5, the “Total (peptides)” value runs as follows: under setting [3], 3; under setting [4], 2. Moreover, the “Unique (peptides)” value reads like this: under setting [3], 2; under setting [4], 2.

Take SLC25A1: under setting [1], the “Total (total peptides)” value amounted to 6 and the “Unique (unique peptides)” value is reported as 5. Under setting [2], the “Total (peptides)” value worked out at 7 and the “Unique (peptides)” value came to 7.

SMARCA2: under setting [5], the “Total (total peptides)” value is recorded as 490 and the “Unique (unique peptides)” value was 84. Besides, under setting [1], the “Total (total peptides)” value came to 221 and the “Unique (unique peptides)” value amounted to 60. Under setting [6], the “Total (peptides)” value is listed as 128 and the “Unique (peptides)” value stood at 46. For the same substance, under setting [2], the “Total (peptides)” value came out at 536 and the “Unique (peptides)” value stood at 86.

In the case of SMARCA5, under setting [3], the “Total (peptides)” value is on record as 1 and the “Unique (peptides)” value is 1.

Consider SNRNP70, for which the Total was found to be 2 and the Unique is given as 2.

For SNRNP200, under setting [5], the “Total (total peptides)” value was 44 and the “Unique (unique peptides)” value turned out to be 42. Moreover, under setting [1], the “Total (total peptides)” value stood at 24 and the “Unique (unique peptides)” value is 24. Under setting [6], the “Total (peptides)” value stood at 30 and the “Unique (peptides)” value amounted to 29. Also, under setting [2], the “Total (peptides)” value was determined as 34 and the “Unique (peptides)” value was 34.

In the case of SON, under setting [5], the “Total (total peptides)” value was 11 and the “Unique (unique peptides)” value turned out to be 10. For the same substance, under setting [6], the “Total (peptides)” value is 11 and the “Unique (peptides)” value was determined as 10.

On to SPEN, for which, under setting [5], the “Total (total peptides)” value amounted to 26 and the “Unique (unique peptides)” value was determined as 24. Under setting [6], the “Total (peptides)” value worked out at 10 and the “Unique (peptides)” value was determined as 9.

As for SPTLC1, under setting [1], the “Total (total peptides)” value amounted to 4 and the “Unique (unique peptides)” value stood at 4. Under setting [2], the “Total (peptides)” value is 4 and the “Unique (peptides)” value turned out to be 4.

Turning to SPTLC2, under setting [3], the “Total (peptides)” value is 2 and the “Unique (peptides)” value came out at 2. Under setting [2], the “Total (peptides)” value is on record as 3 and the “Unique (peptides)” value was 3.

SRSF1: under setting [5], the “Total (total peptides)” value worked out at 25 and the “Unique (unique peptides)” value amounted to 11. Besides, under setting [6], the “Total (peptides)” value was 10 and the “Unique (peptides)” value is 7.

In the case of SRSF3, under setting [5], the “Total (total peptides)” value came out at 5 and the “Unique (unique peptides)” value is 2. In addition, under setting [3], the “Total (peptides)” value is given as 2 and the “Unique (peptides)” value is 2. Also, under setting [7], the “Total (total peptides)” value stood at 3 and the “Unique (unique peptides)” value is reported as 2.

Turning to SSRP1, under setting [5], the “Total (total peptides)” value was 26 and the “Unique (unique peptides)” value came out at 19. For the same substance, under setting [1], the “Total (total peptides)” value is 5 and the “Unique (unique peptides)” value amounted to 5. In addition, under setting [6], the “Total (peptides)” value was determined as 15 and the “Unique (peptides)” value was 13. Also, under setting [4], the “Total (peptides)” value is given as 1 and the “Unique (peptides)” value turned out to be 1.

With SSX1, under setting [5], the “Total (total peptides)” value turned out to be 60 and the “Unique (unique peptides)” value amounted to 4. For the same substance, under setting [1], the “Total (total peptides)” value is given as 10 and the “Unique (unique peptides)” value was 4.
